Results from the supplement of paper PMC10849652.
Some of the results follow.

Amino acid sequences for entries named in this document (tags omitted). A change or cut given only in a name is not applied to a line headed by its entry.
UniProt Q9BVK2: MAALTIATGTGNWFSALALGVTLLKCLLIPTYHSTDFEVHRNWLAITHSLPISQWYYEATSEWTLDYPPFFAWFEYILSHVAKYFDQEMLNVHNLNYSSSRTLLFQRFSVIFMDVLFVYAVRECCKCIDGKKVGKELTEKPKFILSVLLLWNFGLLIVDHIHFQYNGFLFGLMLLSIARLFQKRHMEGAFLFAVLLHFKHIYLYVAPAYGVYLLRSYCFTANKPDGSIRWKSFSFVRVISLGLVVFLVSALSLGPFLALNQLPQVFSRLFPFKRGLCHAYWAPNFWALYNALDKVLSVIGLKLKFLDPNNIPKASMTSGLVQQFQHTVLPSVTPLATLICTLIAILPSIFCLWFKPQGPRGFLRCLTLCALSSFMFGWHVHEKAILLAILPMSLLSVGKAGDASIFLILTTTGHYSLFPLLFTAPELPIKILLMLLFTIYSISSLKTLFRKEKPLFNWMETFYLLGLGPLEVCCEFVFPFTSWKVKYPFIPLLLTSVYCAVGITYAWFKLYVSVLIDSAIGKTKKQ
UniProt Q9Y303: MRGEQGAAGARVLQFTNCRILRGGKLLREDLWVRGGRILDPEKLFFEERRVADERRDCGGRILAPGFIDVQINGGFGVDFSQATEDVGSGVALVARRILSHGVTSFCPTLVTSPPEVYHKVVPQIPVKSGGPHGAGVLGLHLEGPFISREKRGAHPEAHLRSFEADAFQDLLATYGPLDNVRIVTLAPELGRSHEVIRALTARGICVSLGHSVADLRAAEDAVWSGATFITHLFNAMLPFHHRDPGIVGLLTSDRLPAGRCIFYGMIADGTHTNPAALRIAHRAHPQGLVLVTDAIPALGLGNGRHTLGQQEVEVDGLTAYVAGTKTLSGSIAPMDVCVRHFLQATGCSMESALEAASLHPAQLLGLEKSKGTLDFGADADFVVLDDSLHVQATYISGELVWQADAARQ
UniProt Q6P6C2: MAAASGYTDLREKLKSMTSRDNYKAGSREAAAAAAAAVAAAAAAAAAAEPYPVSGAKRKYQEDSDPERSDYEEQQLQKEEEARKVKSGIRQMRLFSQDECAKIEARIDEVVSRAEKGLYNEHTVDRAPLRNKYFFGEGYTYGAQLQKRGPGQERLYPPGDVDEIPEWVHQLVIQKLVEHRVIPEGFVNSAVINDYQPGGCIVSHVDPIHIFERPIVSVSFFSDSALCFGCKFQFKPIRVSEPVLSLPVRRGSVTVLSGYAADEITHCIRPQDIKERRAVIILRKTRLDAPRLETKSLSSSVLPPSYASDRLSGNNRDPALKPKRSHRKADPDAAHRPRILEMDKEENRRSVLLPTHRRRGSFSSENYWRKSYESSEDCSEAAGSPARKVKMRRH
UniProt P30038: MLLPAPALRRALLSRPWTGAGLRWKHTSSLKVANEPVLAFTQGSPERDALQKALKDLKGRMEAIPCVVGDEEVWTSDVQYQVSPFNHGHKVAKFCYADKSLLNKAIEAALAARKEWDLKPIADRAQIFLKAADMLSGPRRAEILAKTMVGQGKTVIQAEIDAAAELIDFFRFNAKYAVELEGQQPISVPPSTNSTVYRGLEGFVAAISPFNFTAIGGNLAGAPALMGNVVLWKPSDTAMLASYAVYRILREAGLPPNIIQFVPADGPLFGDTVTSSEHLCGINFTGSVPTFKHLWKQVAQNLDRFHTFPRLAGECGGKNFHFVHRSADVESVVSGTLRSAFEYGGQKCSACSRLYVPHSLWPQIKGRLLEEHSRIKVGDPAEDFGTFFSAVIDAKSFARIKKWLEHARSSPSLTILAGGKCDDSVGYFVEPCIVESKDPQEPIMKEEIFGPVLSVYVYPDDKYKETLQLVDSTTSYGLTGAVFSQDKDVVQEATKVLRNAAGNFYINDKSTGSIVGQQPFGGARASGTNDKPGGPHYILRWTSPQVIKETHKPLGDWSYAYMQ
UniProt Q9NW15: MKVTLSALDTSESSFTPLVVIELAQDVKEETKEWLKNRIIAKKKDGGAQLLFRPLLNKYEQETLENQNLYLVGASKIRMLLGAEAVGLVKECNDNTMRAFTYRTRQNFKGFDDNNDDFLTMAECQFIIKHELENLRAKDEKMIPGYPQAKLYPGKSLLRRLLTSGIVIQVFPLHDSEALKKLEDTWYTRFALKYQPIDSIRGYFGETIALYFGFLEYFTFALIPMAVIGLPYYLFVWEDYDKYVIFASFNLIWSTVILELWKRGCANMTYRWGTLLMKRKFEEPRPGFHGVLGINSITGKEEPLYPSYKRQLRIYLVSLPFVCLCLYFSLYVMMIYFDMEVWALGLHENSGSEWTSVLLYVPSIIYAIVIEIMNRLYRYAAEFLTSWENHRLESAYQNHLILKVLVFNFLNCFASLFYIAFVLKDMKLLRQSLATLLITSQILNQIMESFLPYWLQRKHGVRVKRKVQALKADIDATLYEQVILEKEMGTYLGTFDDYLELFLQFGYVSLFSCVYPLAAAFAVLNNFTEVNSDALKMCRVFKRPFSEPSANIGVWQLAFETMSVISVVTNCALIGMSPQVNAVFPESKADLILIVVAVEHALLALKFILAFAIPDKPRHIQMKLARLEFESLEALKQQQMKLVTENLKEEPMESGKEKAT
UniProt P16157: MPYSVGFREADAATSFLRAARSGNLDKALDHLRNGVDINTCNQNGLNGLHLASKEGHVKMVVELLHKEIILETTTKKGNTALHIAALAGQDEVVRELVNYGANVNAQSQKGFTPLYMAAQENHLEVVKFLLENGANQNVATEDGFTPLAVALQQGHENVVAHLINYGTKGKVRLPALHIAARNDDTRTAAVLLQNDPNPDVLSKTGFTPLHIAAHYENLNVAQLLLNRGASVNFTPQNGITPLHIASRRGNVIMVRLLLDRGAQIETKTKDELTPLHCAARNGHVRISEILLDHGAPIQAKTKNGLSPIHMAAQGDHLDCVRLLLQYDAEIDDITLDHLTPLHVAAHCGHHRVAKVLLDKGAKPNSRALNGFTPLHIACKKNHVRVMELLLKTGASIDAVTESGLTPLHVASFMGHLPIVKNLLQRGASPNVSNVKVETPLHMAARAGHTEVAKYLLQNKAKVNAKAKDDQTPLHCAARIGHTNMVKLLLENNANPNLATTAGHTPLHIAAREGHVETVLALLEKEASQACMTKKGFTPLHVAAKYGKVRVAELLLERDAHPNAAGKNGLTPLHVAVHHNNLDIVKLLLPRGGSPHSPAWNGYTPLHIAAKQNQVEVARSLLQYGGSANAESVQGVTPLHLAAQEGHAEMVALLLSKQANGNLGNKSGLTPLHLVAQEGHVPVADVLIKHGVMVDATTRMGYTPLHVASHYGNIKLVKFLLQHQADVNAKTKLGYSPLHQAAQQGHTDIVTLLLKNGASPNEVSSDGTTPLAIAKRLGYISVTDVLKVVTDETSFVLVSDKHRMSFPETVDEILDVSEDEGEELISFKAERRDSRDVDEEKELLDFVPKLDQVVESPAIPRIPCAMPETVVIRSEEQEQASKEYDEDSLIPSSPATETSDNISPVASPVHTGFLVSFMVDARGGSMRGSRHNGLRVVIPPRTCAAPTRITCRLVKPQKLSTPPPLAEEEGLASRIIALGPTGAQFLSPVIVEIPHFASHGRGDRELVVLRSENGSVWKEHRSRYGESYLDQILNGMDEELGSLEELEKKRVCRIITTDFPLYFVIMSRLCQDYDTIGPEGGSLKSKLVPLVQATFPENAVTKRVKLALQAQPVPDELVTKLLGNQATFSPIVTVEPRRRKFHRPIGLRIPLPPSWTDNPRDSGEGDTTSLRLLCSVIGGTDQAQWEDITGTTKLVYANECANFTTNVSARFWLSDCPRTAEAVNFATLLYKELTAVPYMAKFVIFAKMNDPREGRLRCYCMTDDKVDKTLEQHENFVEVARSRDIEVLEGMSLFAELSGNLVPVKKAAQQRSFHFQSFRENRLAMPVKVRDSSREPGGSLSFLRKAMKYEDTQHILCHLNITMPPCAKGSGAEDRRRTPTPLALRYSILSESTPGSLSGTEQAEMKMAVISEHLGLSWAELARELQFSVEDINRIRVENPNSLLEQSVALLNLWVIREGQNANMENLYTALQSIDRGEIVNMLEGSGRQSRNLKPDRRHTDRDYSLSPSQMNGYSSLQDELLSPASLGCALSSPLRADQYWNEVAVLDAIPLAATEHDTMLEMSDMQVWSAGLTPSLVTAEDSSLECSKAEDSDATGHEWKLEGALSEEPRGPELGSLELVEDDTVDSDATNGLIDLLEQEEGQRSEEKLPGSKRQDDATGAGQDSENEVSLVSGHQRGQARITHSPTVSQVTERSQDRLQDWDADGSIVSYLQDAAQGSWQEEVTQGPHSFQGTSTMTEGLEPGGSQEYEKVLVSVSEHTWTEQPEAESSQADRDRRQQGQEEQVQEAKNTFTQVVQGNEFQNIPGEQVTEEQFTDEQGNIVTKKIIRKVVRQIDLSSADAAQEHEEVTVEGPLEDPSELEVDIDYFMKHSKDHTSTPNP
UniProt P30837: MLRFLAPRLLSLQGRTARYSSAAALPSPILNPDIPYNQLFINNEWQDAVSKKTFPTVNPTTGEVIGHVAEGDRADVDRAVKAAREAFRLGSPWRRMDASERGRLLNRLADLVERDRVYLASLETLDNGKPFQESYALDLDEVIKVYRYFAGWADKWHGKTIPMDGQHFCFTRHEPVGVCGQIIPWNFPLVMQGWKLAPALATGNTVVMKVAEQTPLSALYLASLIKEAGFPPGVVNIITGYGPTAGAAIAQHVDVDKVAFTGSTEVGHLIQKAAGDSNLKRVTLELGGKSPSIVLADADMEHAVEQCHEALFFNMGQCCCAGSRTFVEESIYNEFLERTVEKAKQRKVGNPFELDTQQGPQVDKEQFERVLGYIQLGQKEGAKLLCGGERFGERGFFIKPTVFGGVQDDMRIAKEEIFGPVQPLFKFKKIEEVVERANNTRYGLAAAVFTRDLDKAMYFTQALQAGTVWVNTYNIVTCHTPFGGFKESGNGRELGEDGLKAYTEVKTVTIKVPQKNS
UniProt Q6NXT1: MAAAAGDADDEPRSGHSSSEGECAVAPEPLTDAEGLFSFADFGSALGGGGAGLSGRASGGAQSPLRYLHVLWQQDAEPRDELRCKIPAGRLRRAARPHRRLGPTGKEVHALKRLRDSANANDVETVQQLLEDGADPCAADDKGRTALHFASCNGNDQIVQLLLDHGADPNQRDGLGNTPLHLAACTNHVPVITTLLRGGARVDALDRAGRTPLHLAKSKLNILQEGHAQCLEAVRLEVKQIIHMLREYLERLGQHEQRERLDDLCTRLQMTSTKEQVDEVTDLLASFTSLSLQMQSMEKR
UniProt O00203: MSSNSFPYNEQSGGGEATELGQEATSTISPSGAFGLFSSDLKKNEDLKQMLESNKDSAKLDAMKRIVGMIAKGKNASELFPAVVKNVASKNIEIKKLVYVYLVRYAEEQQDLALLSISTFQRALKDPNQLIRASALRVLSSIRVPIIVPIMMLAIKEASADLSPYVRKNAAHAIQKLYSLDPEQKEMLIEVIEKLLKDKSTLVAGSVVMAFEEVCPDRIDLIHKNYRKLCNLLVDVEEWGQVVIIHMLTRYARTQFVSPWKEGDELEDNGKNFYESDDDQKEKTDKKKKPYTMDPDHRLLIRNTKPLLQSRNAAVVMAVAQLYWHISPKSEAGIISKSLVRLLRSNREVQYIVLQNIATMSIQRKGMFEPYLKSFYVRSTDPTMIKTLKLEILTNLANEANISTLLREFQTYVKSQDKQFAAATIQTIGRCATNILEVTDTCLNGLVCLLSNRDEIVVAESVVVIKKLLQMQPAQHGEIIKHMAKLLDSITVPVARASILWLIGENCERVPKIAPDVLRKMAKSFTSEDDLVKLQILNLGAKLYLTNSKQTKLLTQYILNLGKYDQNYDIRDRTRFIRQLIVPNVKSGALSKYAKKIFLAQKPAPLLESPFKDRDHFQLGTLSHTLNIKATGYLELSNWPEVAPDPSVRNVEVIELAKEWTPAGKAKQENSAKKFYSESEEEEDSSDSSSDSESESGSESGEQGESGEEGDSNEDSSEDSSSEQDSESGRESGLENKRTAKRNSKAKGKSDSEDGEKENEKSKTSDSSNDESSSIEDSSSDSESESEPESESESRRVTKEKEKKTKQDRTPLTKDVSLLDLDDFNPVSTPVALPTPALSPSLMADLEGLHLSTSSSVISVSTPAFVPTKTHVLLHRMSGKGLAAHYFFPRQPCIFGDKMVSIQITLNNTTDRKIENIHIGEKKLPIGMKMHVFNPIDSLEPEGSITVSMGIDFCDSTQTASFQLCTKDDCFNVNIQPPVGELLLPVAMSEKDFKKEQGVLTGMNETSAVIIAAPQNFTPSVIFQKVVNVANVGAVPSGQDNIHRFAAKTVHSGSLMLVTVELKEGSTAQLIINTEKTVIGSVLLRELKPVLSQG

Key:
Test in all cases: log2 fold change, soluble protein after heating vs DMSO (PISA); higher = thermal stabilisation; K562 lysate, 10 uM; active = over 0.2 and 3.5 SD of the protein, either way, in both replicates (recomputed)
[1] = compound: C#Cc1cccc(Nc2ncnc3cc(OCCOC)c(OCCOC)cc23)c1 [erlotinib]
In short: (§1)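 K562 pellets were dounce-homogenised in PBS pH 7.4 containing 1 mM MgCl2, and the crude extract, at 1 mg/mL protein, was exposed to 10 μM compound for 30 min. Aliquots were heated for 3 min across 48°C-58°C, pooled, brought to 0.5% NP-40 at 4°C and spun at 21,000xg for 90 min, with the supernatant taken as soluble protein. TMTpro 16plex LC-MS/MS with equalised channel sums quantified that protein. Values are log-two fold changes in thermal stability relative to solvent controls, taken from duplicates.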

[2] = compound: C/C(=N\NC(=O)C1=CC(=CC=C1)S(=O)(=O)N2CCOCC2)/C3=C(C=CC(=C3)Cl)O
In short: as §1

[3] = compound: C1=CC(=CC=C1C2=NC3=C(N2)C=C(C=C3)C(=O)N)OC4=CC=C(C=C4)Cl
In short: as §1

[4] = compound: C1=CC2=C(C=CC(=C2)/C=C\3/C(=O)NC(=NCC4=CC=CS4)S3)N=C1
In short: as §1

[5] = compound: C1=CC2=NC=CN=C2C=C1/C=C/3\C(=O)NC(=O)S3
In short: as §1

[6] = compound: C1=CC=C(C=C1)C2=NC(=C(N2)C3=CC=NC=C3)C4=CC(=C(C=C4)Cl)O
In short: as §1

[7] = compound: C1=CC=C2C(=C1)C3=NNC4=CC=CC(=C43)C2=O
In short: as §1

[8] = compound: C1CCN(C1)C(=O)NC2=CC=CC(=C2)NC3=NC=C(C(=N3)NCCC4=CN=CN4)Br
In short: as §1

[9] = compound: C1CN(CCC1(CC2=CC=C(C=C2)Cl)N)C3=NC=NC4=C3C=CN4
In short: as §1

[10] = compound: C1COCCN1CCN2C3=CC=CC=C3N=C2NC(=O)C4=CC(=CC=C4)[N+](=O)[O-] [IRAK-1-4 Inhibitor I]
In short: as §1

Measured: log2 fold change

ALDH1L2 (UniProt Q3SY69)
inactive: [1] 0.005 | [2] 0.025 | [3] 0.011 | [4] 0.037 | [5] -0.02 | [6] -0.004 | [7] -0.064 | [8] -0.018 | [9] 0.024 | [10] -0.011

ALDH18A1 (UniProt P54886)
inactive: [1] 0.029 | [2] -0.039 | [3] -0.017 | [4] 0.02 | [5] -0.015 | [6] -0.016 | [7] -0.025 | [8] -0.022 | [9] 0.001 | [10] -0.006

AKT1S1 isoform 3 (UniProt Q96B36)
inactive: [1] -0.107 | [2] -0.219 | [3] -0.08 | [4] -0.03 | [5] -0.012 | [6] 0.019 | [7] -0.015 | [8] 0.034 | [9] -0.034 | [10] -0.02

ALG8 (UniProt Q9BVK2)
inactive: [1] 0.022 | [2] -0.102 | [3] -0.082 | [4] 0.018 | [5] 0.016 | [6] -0.062 | [7] -0.001 | [8] 0.053 | [9] 0.012 | [10] -0.007

ALDH9A1 isoform 3 (UniProt P49189)
inactive: [1] 0.001 | [2] 0.002 | [3] -0.016 | [4] -0.002 | [5] -0.01 | [6] 0.018 | [7] -0.018 | [8] -0.033 | [9] 0.039 | [10] -0.011

ALDH2 (UniProt P05091)
inactive: [1] -0.048 | [2] 0.009 | [3] -0.062 | [4] 0.03 | [5] 0.042 | [6] -0.016 | [7] 0.175 | [8] 0.011 | [9] 0.023 | [10] 0.003

ALDH16A1 (UniProt Q8IZ83)
inactive: [1] -0.038 | [2] 0.007 | [3] 0.014 | [4] -0.005 | [5] 0.01 | [6] -0.04 | [7] 0.014 | [8] 0.03 | [9] -0.001 | [10] -0.004

AMDHD2 isoform 3 (UniProt Q9Y303)
inactive: [1] -0.013 | [2] -0.045 | [3] 0.06 | [4] -0.038 | [5] 0.028 | [6] -0.01 | [7] -0.003 | [8] 0.022 | [9] 0.044 | [10] 0.018

ALG1 (UniProt Q9BT22)
inactive: [1] -0.031 | [2] -0.007 | [3] 0.066 | [4] 0.028 | [5] 0.051 | [6] -0.047 | [7] 0.066 | [8] 0 | [9] 0.063 | [10] 0.042

ALKBH5 (UniProt Q6P6C2)
inactive: [1] 0.007 | [2] -0.126 | [3] 0.053 | [4] -0.025 | [5] -0.013 | [6] 0.053 | [7] -0.127 | [8] -0.08 | [9] 0.016 | [10] 0.079

ALDH1A2 (UniProt O94788)
inactive: [1] -0.023 | [2] 0.006 | [3] 0.015 | [4] -0.017 | [5] 0.008 | [6] 0.007 | [7] 0.052 | [8] 0.023 | [9] -0.004 | [10] 0.014

ANKLE2 (UniProt Q86XL3)
inactive: [1] 0.022 | [2] 0.065 | [3] -0.021 | [4] -0.027 | [5] -0.028 | [6] -0.014 | [7] -0.011 | [8] -0.091 | [9] 0.006 | [10] 0.054

AMPD3 isoform 4 (UniProt Q01432)
inactive: [1] 0 | [2] 0.048 | [3] 0.031 | [4] 0.007 | [5] -0.072 | [6] -0.004 | [7] 0.027 | [8] -0.002 | [9] -0.002 | [10] 0.015

ANAPC2 (UniProt Q9UJX6)
inactive: [1] 0.04 | [2] -0.054 | [3] -0.021 | [4] 0.025 | [5] 0.07 | [6] 0.001 | [7] -0.026 | [8] -0.012 | [9] 0.05 | [10] 0.012

ALDH4A1 (UniProt P30038)
inactive: [1] 0.039 | [2] 0.045 | [3] 0.031 | [4] -0.048 | [5] 0.046 | [6] -0.001 | [7] -0.013 | [8] -0.012 | [9] 0.03 | [10] -0.06

ALAD (UniProt P13716)
inactive: [1] -0.004 | [2] -0.072 | [3] 0.046 | [4] -0.07 | [5] 0.005 | [6] 0.01 | [7] 0.024 | [8] -0.027 | [9] 0.055 | [10] 0.015

ALG5 (UniProt Q9Y673)
inactive: [1] 0.08 | [2] 0.051 | [3] -0.111 | [4] 0.025 | [5] -0.054 | [6] -0.023 | [7] -0.051 | [8] -0.085 | [9] 0.069 | [10] 0.013

Pulled one by one from above (two):
AMPD3 isoform 4 (UniProt Q01432)
inactive: [1] 0 | [2] 0.048 | [3] 0.031 | [4] 0.007 | [5] -0.072 | [6] -0.004 | [7] 0.027 | [8] -0.002 | [9] -0.002 | [10] 0.015

ALAD (UniProt P13716)
inactive: [1] -0.004 | [2] -0.072 | [3] 0.046 | [4] -0.07 | [5] 0.005 | [6] 0.01 | [7] 0.024 | [8] -0.027 | [9] 0.055 | [10] 0.015

(list continues)

ANO10 (UniProt Q9NW15)
inactive: [1] 0.015 | [2] -0.015 | [3] -0.041 | [4] 0.047 | [5] 0.022 | [6] -0.032 | [7] 0.013 | [8] -0.034 | [9] -0.011 | [10] -0.011

AP3B2 isoform 4 (UniProt Q13367)
inactive: [1] -0.021 | [2] 0.026 | [3] 0.027 | [4] 0.033 | [5] 0.016 | [6] -0.01 | [7] -0.029 | [8] -0.062 | [9] 0.008 | [10] 0.002

ANK1 isoform 14 (UniProt P16157)
inactive: [1] 0.001 | [2] -0.002 | [3] -0.031 | [4] 0.028 | [5] 0.039 | [6] 0.026 | [7] -0.015 | [8] 0.002 | [9] 0.011 | [10] 0.01

ALDH1B1 (UniProt P30837)
inactive: [1] -0.064 | [2] 0.027 | [3] -0.035 | [4] -0.004 | [5] 0.031 | [6] 0.009 | [8] -0.025 | [9] 0.048 | [10] 0.038
active: [7] 0.262

AKT2 (UniProt P31751)
inactive: [1] -0.011 | [2] 0.082 | [3] -0.013 | [4] -0.005 | [5] -0.022 | [6] -0.025 | [7] 0.009 | [8] -0.014 | [9] -0.017 | [10] -0.045

AP3S1 (UniProt Q92572)
inactive: [1] 0.034 | [2] -0.056 | [3] -0.003 | [4] 0.011 | [5] -0.028 | [6] 0.006 | [7] 0 | [8] -0.004 | [9] -0.033 | [10] 0.001

ALYREF (UniProt Q86V81)
inactive: [1] -0.042 | [2] -0.107 | [3] -0.023 | [4] 0.042 | [5] 0.041 | [6] 0.038 | [7] 0.058 | [8] -0.009 | [9] 0.012 | [10] -0.012

ANKRD54 (UniProt Q6NXT1)
inactive: [1] -0.005 | [2] 0.01 | [3] 0.122 | [4] -0.036 | [5] 0.025 | [6] 0.037 | [7] 0.02 | [8] 0.008 | [9] -0.035 | [10] 0.003

ANKFY1 isoform 4 (UniProt Q9P2R3)
inactive: [1] 0.023 | [2] 0.006 | [3] -0.008 | [4] -0.003 | [5] -0.001 | [6] 0.005 | [7] -0.022 | [8] 0.029 | [9] 0.003 | [10] 0.001

AP3B1 (UniProt O00203)
inactive: [1] -0.024 | [2] -0.001 | [3] 0.002 | [4] 0.021 | [5] -0.029 | [6] -0.001 | [7] -0.024 | [8] -0.014 | [9] -0.005 | [10] -0.025

ALDH5A1 isoform 2 (UniProt P51649)
inactive: [1] -0.005 | [2] 0.045 | [3] 0.024 | [4] -0.009 | [5] 0.006 | [6] 0.013 | [7] -0.026 | [8] -0.013 | [9] -0.002 | [10] -0.012

AMD1 (UniProt P17707)
inactive: [1] 0.019 | [2] 0.011 | [3] -0.091 | [4] -0.075 | [5] 0.055 | [6] 0.061 | [7] 0.011 | [8] 0.114 | [9] -0.156 | [10] -0.036

AMZ2 (UniProt Q86W34)
inactive: [1] -0.019 | [2] 0.044 | [3] 0.012 | [4] -0.009 | [5] 0.127 | [6] -0.012 | [7] 0.015 | [8] 0.061 | [9] -0.016 | [10] 0.023
